Primary screen of a compound library

By UniProt entry, the sequences of proteins in these tests, tags left out.
UniProt I6X8D2, whole entry: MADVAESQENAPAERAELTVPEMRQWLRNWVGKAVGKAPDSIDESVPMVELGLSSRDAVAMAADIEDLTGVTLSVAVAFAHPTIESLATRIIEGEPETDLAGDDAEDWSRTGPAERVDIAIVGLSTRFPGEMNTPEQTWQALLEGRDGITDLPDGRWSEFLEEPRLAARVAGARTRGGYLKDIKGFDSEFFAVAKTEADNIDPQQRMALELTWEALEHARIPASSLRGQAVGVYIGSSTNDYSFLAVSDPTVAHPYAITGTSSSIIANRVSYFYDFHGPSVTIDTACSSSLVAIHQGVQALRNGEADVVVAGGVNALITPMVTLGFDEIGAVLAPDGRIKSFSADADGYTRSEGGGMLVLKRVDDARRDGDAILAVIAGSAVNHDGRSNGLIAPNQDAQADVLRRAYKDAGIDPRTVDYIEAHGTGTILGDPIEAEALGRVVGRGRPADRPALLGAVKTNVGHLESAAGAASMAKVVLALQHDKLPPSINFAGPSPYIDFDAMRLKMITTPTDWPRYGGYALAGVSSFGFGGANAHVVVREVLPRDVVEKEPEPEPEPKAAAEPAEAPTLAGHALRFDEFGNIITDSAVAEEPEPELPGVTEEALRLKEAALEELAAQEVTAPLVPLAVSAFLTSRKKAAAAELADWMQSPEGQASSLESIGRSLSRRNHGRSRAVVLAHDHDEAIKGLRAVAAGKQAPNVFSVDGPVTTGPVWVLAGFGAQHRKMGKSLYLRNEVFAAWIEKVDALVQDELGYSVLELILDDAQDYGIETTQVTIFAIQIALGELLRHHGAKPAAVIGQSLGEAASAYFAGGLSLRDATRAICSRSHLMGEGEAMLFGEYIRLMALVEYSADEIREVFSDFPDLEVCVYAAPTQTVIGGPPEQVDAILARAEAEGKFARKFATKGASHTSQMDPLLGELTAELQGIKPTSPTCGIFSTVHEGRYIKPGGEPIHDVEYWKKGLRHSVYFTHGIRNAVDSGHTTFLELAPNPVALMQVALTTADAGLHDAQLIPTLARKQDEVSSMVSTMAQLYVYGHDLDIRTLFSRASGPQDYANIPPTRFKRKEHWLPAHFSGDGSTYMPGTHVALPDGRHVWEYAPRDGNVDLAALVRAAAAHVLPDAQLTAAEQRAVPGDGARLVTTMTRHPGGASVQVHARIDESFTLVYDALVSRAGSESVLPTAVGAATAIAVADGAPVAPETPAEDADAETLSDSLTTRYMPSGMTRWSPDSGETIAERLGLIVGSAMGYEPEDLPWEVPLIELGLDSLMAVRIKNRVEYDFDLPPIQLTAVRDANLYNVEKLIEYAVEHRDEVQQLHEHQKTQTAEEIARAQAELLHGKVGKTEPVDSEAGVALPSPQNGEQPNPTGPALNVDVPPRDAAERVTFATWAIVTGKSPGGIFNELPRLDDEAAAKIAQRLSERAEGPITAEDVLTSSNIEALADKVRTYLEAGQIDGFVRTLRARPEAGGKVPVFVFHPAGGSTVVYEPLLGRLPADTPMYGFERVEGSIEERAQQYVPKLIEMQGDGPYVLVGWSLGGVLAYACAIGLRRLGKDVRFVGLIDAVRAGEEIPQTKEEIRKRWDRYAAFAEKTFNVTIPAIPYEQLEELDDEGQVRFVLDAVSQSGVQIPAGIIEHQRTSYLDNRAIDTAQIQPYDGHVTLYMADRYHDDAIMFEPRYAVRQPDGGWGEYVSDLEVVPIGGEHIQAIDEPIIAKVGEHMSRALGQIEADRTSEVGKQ

Data taken from ChEMBL document CHEMBL3988442, “University of Dundee, Small-Polar-MMV Screening Library” (2021).

A: 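Assay of Toxoplasma gondii numbers, read through their beta-galactosidase reporter with a colour substrate. Concentration: 10 µM. Higher reads as fewer parasites (inferred from which compounds were picked for retests). Of about 67,000 compounds tested this way, about 260 (0.38%) reached 50% or more in at least one test.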
B: 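Enzyme assay of the thioesterase domain of polyketide synthase 13; the read-out is not stated. Target: Polyketide synthase Pks13, Mycobacterium tuberculosis (UniProt I6X8D2). Concentration: 30 µM. Higher reads as stronger inhibition (inferred from which compounds were picked for retests). Size under these conditions: about 67,000 compounds, about 300 of them at 50% or above in at least one test.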

Results are given as percent effect. How 0% and 100% were set is not recorded. Most values in the screen are low, and negative values occur. This is an unselected part of the compounds tested. A dash means the value is not listed here; it may have been measured.

| SMILES | A | B |
|---|---|---|
| `Nc1nc(CCNc2ncnc3c2CCN(C(=O)C2CC2)C3)cs1` | -2.704 | -18.45 |
| `O=S(=O)(CCSc1nccn1C1CC1)c1ccccc1` | -1.345 | -7.848 |
| `CCn1c(CN(C)C)nnc1C1CCN(Cc2cccc(F)c2F)CC1` | 7.705 | -6.477 |
| `O=C(O)C(F)(F)F.O=C1COC2(CCN(C(=O)c3ccoc3)CC2)CN1Cc1ccccn1` | 4.083 | - |
| `c1cncc(CNC2CCc3ncnn3C2)c1` (stereo not drawn) | -30.62 | -29.88 |
| `CCSc1ccc(C(=O)N2CC[C@](O)(CC)[C@H](O)C2)s1` | -19.84 | -32.93 |
| `CCc1ncc(CN2CCc3nc4sc(C)cc4c(=O)n3CC2)cn1` | 1.196 | 22.88 |
| `Cn1nnc2c1CCN(CC1CC1)C2COCc1ccccc1` (stereo not drawn) | - | -30.95 |
| `CN(C)CC(=O)N1CCc2sc(C(=O)N3CCOCC3)cc21` | 14.18 | -20.81 |
| `CCCc1nnc(NCCn2nc(C)c(Cl)c2C)o1` | -4.189 | -21.46 |
| `CCc1nnc(C(C)N(C)Cc2c(C)nn(-c3ccccc3)c2C)o1` (stereo not drawn) | 5.865 | -26.41 |
| `CN(Cc1ncc(C(C)(C)C)o1)CC1CCCN1c1cccnn1` (stereo not drawn) | 1.01 | -7.339 |
| `O=C1N(Cc2cccc(F)c2F)CCCC1(O)CNCC1CCCCC1` (stereo not drawn) | -5.139 | -11.95 |
| `CCOCCCNC(=O)C1(C)CCC(=O)N1c1ccccc1F` (stereo not drawn) | 15.04 | -4.899 |
| `O=C(N1CCC(Nc2cccnn2)CC1)C1(c2ccc(F)cc2)CC1` | -3.893 | -8.403 |
| `c1nc(-c2nc(C3CCOC3)no2)cs1` (stereo not drawn) | -10.36 | -17.37 |
| `O=C(Cc1cccs1)N1C[C@@H]2COC[C@]2(COc2cccnc2)C1` | - | -9.777 |
| `CN(C)c1cc2c(nn1)CCN(C(=O)C1Cc3ccccc3O1)C2` (stereo not drawn) | 2.904 | -22.14 |
| `CC(C)Nc1ncc(-c2csc(NC(=O)C[C@H]3COCCN3)n2)cn1` | -7.56 | -10.32 |
| `CCC(C(=O)N(C)C)n1ccc2ncccc2c1=O` (stereo not drawn) | -2.624 | -3.978 |
| `O=C(c1ccccc1)N1CCN(CC2CCOc3ccccc3C2)CC1` (stereo not drawn) | 3.195 | 10.51 |
| `Cc1c(C(=O)N2CCC3(CCCN(CC4CC4)C3=O)C2)ccn1C` (stereo not drawn) | 19.36 | -7.51 |
| `Cc1ccc(OCCCNC(=O)C(C)Sc2nncn2C)cc1` (stereo not drawn) | -6.464 | -19.86 |
| `CCN(Cc1ccc2c(c1)OCCO2)C(=O)NCc1csc(C)n1` | 1.853 | -20.22 |
| `OCc1csc(N2CCCC(COc3cccc(F)c3)C2)n1` (stereo not drawn) | 3.176 | 24.77 |
| `Cn1cnc2c1C(COCC1CC1)CN(Cc1ccc3c(c1)OCO3)C2.O=C(O)C(F)(F)F.O=C(O)C(F)(F)F` (stereo not drawn) | -8.921 | - |
| `O=C(NCCCn1ccnc1)NCC(c1ccco1)N1CCCCC1` (stereo not drawn) | 13.18 | -40.94 |
| `COc1ncnc2c1CCN(C(=O)NCc1cccc(F)c1)CC2` | -5.771 | -29.88 |
| `CCCC(NC(=O)c1cc(C)n(C2CC2)c1C)c1nnn[nH]1` (stereo not drawn) | -5.286 | -28.8 |
| `Cc1nc(CN2CCOC(c3nc(C(C)C)n[nH]3)C2)oc1C` (stereo not drawn) | - | -26.33 |
| `COCCC(=O)N1C[C@H]2CN(Cc3cccnc3)C(=O)[C@H]2C1` | - | -37.5 |
| `Cc1nc(COCc2cnc3n2CCN(C(=O)C2CC2)C3C)cs1` (stereo not drawn) | 3.818 | -2.667 |
| `COC(=O)CNC(=O)c1ccc(OC2CCN(S(C)(=O)=O)CC2)c(Cl)c1` | 11.14 | -18.37 |
| `Cn1cnc2c1CCN(CCS(=O)(=O)c1ccc(Cl)cc1)C2` | 6.722 | -19.51 |
| `CC(C)c1cc(C(=O)NCC2CCCN(c3ncccn3)C2)n(C)n1` (stereo not drawn) | 14.26 | -4.434 |
| `O=C(NCCn1ccnc1)N1CCN(Cc2cccnc2)CC1` | 4.363 | -19.24 |
| `CC(C)c1ccc(N2CCc3onc(-c4ccc(F)c(F)c4)c3C2)nn1` | -6.702 | 3.741 |
| `CC(C)NC(=O)N1CCN(C(=O)c2ccco2)CC2(CC(=O)N(C)C2)C1` (stereo not drawn) | -6.232 | -1.824 |
| `Cc1ccsc1CN1CCC(n2cc(C(O)c3ccccc3)nn2)CC1` (stereo not drawn) | 9.99 | -10.61 |
| `COC(=O)c1sccc1S(=O)(=O)NCCC(O)c1ccoc1` (stereo not drawn) | 5.92 | -4.715 |
| `CCC(O)CN1CCN(C(=O)c2ccc3c(c2)COC3)CC1` (stereo not drawn) | -35.63 | -3.329 |
| `O=C(c1ccc2[nH]ccc2c1)N1CC[C@@H]2CN(CC3CC3)CCO[C@@H]2C1` | - | -8.724 |
| `COc1cc(C2CC(=O)Nc3c2nc2n3CCCC2)cc(OC)c1O` (stereo not drawn) | 11.95 | -7.875 |
| `CC(c1cc(F)ccc1F)N(C)Cc1nc2c(cnn2C)c(=O)[nH]1` (stereo not drawn) | 17.3 | -15.38 |
| `Cc1ccc(C#N)c(N2CCC3(CCCN(C4CCOCC4)C3=O)C2)n1` (stereo not drawn) | -19.82 | 30.43 |
| `O=C(O)C(F)(F)F.O=C(O)C(F)(F)F.c1cncc(OCC2CN(Cc3nccs3)Cc3nccn3C2)c1` (stereo not drawn) | 8.564 | - |
| `CC(C)c1cc(NC(=O)c2ccc([S+]([O-])C(C)C)cc2)[nH]n1` (stereo not drawn) | 54.78 | -16.35 |
| `CN1C(=O)CO[C@H]2CN(C(=O)Nc3ccc(F)cc3)C[C@H]21` | - | -23.86 |
| `[H][C@@]12CCN(C[C@@H]1c1cc(-c3ccccc3)nn1C)[C@@H](CNS(C)(=O)=O)C2` | -0.07437 | - |
| `O=C(O)C(F)(F)F.[H][C@]12CCN(CC(C)C)CC[C@@]1([H])S(=O)(=O)CCN2C(=O)c1ccccc1` | -6.714 | - |
| `CN(C)c1nc2c(c(N(C)C)n1)CCN(C(=O)CN1C[C@@H]3CC[C@H]1C3)C2` | - | -29.24 |
| `Cc1cnn(CC2CCCCN2C(=O)c2cnc3n[nH]c(C)c3c2)c1` (stereo not drawn) | 17.13 | 2.499 |
| `CC(Nc1ccc2c(c1)CCC2)c1nc(C2CC2)no1` (stereo not drawn) | 2.999 | -30.35 |
| `O=C(CC1CCN(c2cccnn2)CC1)NC1CCOCC1` | -8.804 | -16.36 |
| `c1cncc(-c2noc(CN3CCCC3Cn3cccn3)n2)c1` (stereo not drawn) | 5.572 | -3.836 |
| `CC(=O)N1CCN(c2cc(C3CCNCC3)ccn2)CC1.Cl.Cl` | 18.66 | - |
| `CC(C)N1CCN(CCn2cnc3c(F)cccc3c2=O)CC1` | 11.28 | -32.6 |
| `Cc1nn(C(C)C)c(C)c1S(=O)(=O)Nc1ccc(C(=O)O)c(Cl)c1` | 7.65 | -41.26 |
| `CCOCCn1c(=O)[nH]c2cc(C(=O)N(C)Cc3nc(C)cs3)ccc21` | -2.193 | -3.432 |
| `Cc1nn(C)c2nc(N3CCCC3c3nccs3)sc12` (stereo not drawn) | -18.86 | -22.23 |
| `CCOCc1nc2c(c(NCCNC(C)=O)n1)CCN(C(C)=O)CC2` | 0 | -8.824 |
| `CN(Cc1nnc2n1CCC2)C(=O)c1ccc(=O)n(C)n1` | 13.34 | -11.29 |
| `Cc1nc(C(=O)N2C[C@@H]3CN(S(C)(=O)=O)CCO[C@@H]3C2)cs1` | - | -11.05 |

Once more, the final 7:

SMILES	A	B
CC(C)N1CCN(CCn2cnc3c(F)cccc3c2=O)CC1	11.28	-32.6
Cc1nn(C(C)C)c(C)c1S(=O)(=O)Nc1ccc(C(=O)O)c(Cl)c1	7.65	-41.26
CCOCCn1c(=O)[nH]c2cc(C(=O)N(C)Cc3nc(C)cs3)ccc21	-2.193	-3.432
Cc1nn(C)c2nc(N3CCCC3c3nccs3)sc12 (stereo not drawn)	-18.86	-22.23
CCOCc1nc2c(c(NCCNC(C)=O)n1)CCN(C(C)=O)CC2	0	-8.824
CN(Cc1nnc2n1CCC2)C(=O)c1ccc(=O)n(C)n1	13.34	-11.29
Cc1nc(C(=O)N2C[C@@H]3CN(S(C)(=O)=O)CCO[C@@H]3C2)cs1	-	-11.05